Laboratory results reported in PMC4666396.
Results are given in words; binding and its absence hold for the method and conditions named. In cells and extracts the contact can be indirect. A yes stands for co-enrichment or nearness to the bait. Other partners may have been found.

T1: Splicing factor 1 (SF1) (human (endogenous in HeLa)) (UniProt Q15637)
T1 sequence: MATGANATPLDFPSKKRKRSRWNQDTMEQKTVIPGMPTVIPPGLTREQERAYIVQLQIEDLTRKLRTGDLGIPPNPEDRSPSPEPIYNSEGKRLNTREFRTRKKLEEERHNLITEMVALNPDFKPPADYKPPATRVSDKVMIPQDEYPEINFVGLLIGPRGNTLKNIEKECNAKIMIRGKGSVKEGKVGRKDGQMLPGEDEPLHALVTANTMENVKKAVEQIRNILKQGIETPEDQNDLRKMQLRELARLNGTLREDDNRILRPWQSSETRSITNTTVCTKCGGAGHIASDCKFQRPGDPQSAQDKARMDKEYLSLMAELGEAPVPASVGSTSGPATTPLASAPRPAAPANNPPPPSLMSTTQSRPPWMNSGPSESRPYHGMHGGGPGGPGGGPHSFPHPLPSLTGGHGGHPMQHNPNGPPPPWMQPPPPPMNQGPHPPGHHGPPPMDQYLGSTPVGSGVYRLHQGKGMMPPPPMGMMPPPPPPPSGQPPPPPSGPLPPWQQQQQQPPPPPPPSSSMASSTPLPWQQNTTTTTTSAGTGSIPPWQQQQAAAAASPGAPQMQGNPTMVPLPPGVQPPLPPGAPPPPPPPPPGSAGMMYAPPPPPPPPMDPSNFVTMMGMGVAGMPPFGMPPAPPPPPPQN

B1: 9G8 (protein, UniProt Q16629 1-238)
chain: MSRYGRYGGETKVYVGNLGTGAGKGELERAFSYYGPLRTVWIARNPPGFAFVEFEDPRDAEDAVRGLDGKVICGSRVRVELSTGMPRRSRFDRPPARRPFDPNDRCYECGEKGHYAYDCHRYSRRRRSRSRSRSHSRSRGRRYSRSRSRSRGRRSRSASPRRSRSISLRRSRSASLRRSRSGSIKGSRYFQSPSRSRSRSRSISRPRSSRSKSRSPSPKRSRSPSGSPRRSASPERMD
B2: SF3b125 (protein, UniProt Q86XP3 1-938)
chain: MNWNKGGPGTKRGFGFGGFAISAGKKEEPKLPQQSHSAFGATSSSSGFGKSAPPQLPSFYKIGSKRANFDEENAYFEDEEEDSSNVDLPYIPAENSPTRQQFHSKPVDSDSDDDPLEAFMAEVEDQAARDMKRLEEKDKERKNVKGIRDDIEEEDDQEAYFRYMAENPTAGVVQEEEEDNLEYDSDGNPIAPTKKIIDPLPPIDHSEIDYPPFEKNFYNEHEEITNLTPQQLIDLRHKLNLRVSGAAPPRPGSSFAHFGFDEQLMHQIRKSEYTQPTPIQCQGVPVALSGRDMIGIAKTGSGKTAAFIWPMLIHIMDQKELEPGDGPIAVIVCPTRELCQQIHAECKRFGKAYNLRSVAVYGGGSMWEQAKALQEGAEIVVCTPGRLIDHVKKKATNLQRVSYLVFDEADRMFDMGFEYQVRSIASHVRPDRQTLLFSATFRKKIEKLARDILIDPIRVVQGDIGEANEDVTQIVEILHSGPSKWNWLTRRLVEFTSSGSVLLFVTKKANAEELANNLKQEGHNLGLLHGDMDQSERNKVISDFKKKDIPVLVATDVAARGLDIPSIKTVINYDVARDIDTHTHRIGRTGRAGEKGVAYTLLTPKDSNFAGDLVRNLEGANQHVSKELLDLAMQNAWFRKSRFKGGKGKKLNIGGGGLGYRERPGLGSENMDRGNNNVMSNYEAYKPSTGAMGDRLTAMKAAFQSQYKSHFVAASLSNQKAGSSAAGASGWTSAGSLNSVPTNSAQQGHNSPDSPVTSAAKGIPGFGNTGNISGAPVTYPSAGAQGVNNTASGNNSREGTGGSNGKRERYTENRGSSRHSHGETGNRHSDSPRHGDGGRHGDGYRHPESSSRHTDGHRHGENRHGGSAGRHGENRGANDGRNGESRKEAFNRESKMEPKMEPKVDSSKMDKVDSKTDKTADGFAVPEPPKRKKSRWDS
B3: U2AF35 (protein, UniProt Q01081 1-240)
chain: MAEYLASIFGTEKDKVNCSFYFKIGACRHGDRCSRLHNKPTFSQTIALLNIYRNPQNSSQSADGLRCAVSDVEMQEHYDEFFEEVFTEMEEKYGEVEEMNVCDNLGDHLVGNVYVKFRREEDAEKAVIDLNNRWFNGQPIHAELSPVTDFREACCRQYEMGECTRGGFCNFMHLKPISRELRRELYGRRRKKHRSRSRSRERRSRSRDRGRGGGGGGGGGGGGRERDRRRSRDRERSGRF
B4: calcium homoeostasis endoplasmic reticulum protein (CHERP) (protein, UniProt Q8IWX8 1-916)
chain: MEMPLPPDDQELRNVIDKLAQFVARNGPEFEKMTMEKQKDNPKFSFLFGGEFYSYYKCKLALEQQQLICKQQTPELEPAATMPPLPQPPLAPAAPIPPAQGAPSMDELIQQSQWNLQQQEQHLLALRQEQVTAAVAHAVEQQMQKLLEETQLDMNEFDNLLQPIIDTCTKDAISAGKNWMFSNAKSPPHCELMAGHLRNRITADGAHFELRLHLIYLINDVLHHCQRKQARELLAALQKVVVPIYCTSFLAVEEDKQQKIARLLQLWEKNGYFDDSIIQQLQSPALGLGQYQATLINEYSSVVQPVQLAFQQQIQTLKTQHEEFVTSLAQQQQQQQQQQQQLQMPQMEAEVKATPPPPAPPPAPAPAPAIPPTTQPDDSKPPIQMPGSSEYEAPGGVQDPAAAGPRGPGPHDQIPPNKPPWFDQPHPVAPWGQQQPPEQPPYPHHQGGPPHCPPWNNSHEGMWGEQRGDPGWNGQRDAPWNNQPDAAWNSQFEGPWNSQHEQPPWGGGQREPPFRMQRPPHFRGPFPPHQQHPQFNQPPHPHNFNRFPPRFMQDDFPPRHPFERPPYPHRFDYPQGDFPAEMGPPHHHPGHRMPHPGINEHPPWAGPQHPDFGPPPHGFNGQPPHMRRQGPPHINHDDPSLVPNVPYFDLPAGLMAPLVKLEDHEYKPLDPKDIRLPPPMPPSERLLAAVEAFYSPPSHDRPRNSEGWEQNGLYEFFRAKMRARRRKGQEKRNSGPSRSRSRSKSRGRSSSRSNSRSSKSSGSYSRSRSRSCSRSYSRSRSRSRSRSRSSRSRSRSQSRSRSKSYSPGRRRRSRSRSPTPPSSAGLGSNSAPPIPDSRLGEENKGHQMLVKMGWSGSGGLGAKEQGIQDPIKGGDVRDKWDQYKGVGVALDDPYENYRRNKSYSFIARMKARDECK
B5: SRp55 (protein, UniProt Q13247 1-344)
chain: MPRVYIGRLSYNVREKDIQRFFSGYGRLLEVDLKNGYGFVEFEDSRDADDAVYELNGKELCGERVIVEHARGPRRDRDGYSYGSRSGGGGYSSRRTSGRDKYGPPVRTEYRLIVENLSSRCSWQDLKDFMRQAGEVTYADAHKERTNEGVIEFRSYSDMKRALDKLDGTEINGRNIRLIEDKPRTSHRRSYSGSRSRSRSRRRSRSRSRRSSRSRSRSISKSRSRSRSRSKGRSRSRSKGRKSRSKSKSKPKSDRGSHSHSRSRSKDEYEKSRSRSRSRSPKENGKGDIKSKSRSRSQSRSNSPLPVPPSKARSVSPPPKRATSRSRSRSRSKSRSRSRSSSRD
B6: hPRP6 (protein, UniProt O94906 1-941)
chain: MNKKKKPFLGMPAPLGYVPGLGRGATGFTTRSDIGPARDANDPVDDRHAPPGKRTVGDQMKKNQAADDDDEDLNDTNYDEFNGYAGSLFSSGPYEKDDEEADAIYAALDKRMDERRKERREQREKEEIEKYRMERPKIQQQFSDLKRKLAEVTEEEWLSIPEVGDARNKRQRNPRYEKLTPVPDSFFAKHLQTGENHTSVDPRQTQFGGLNTPYPGGLNTPYPGGMTPGLMTPGTGELDMRKIGQARNTLMDMRLSQVSDSVSGQTVVDPKGYLTDLNSMIPTHGGDINDIKKARLLLKSVRETNPHHPPAWIASARLEEVTGKLQVARNLIMKGTEMCPKSEDVWLEAARLQPGDTAKAVVAQAVRHLPQSVRIYIRAAELETDIRAKKRVLRKALEHVPNSVRLWKAAVELEEPEDARIMLSRAVECCPTSVELWLALARLETYENARKVLNKARENIPTDRHIWITAAKLEEANGNTQMVEKIIDRAITSLRANGVEINREQWIQDAEECDRAGSVATCQAVMRAVIGIGIEEEDRKHTWMEDADSCVAHNALECARAIYAYALQVFPSKKSVWLRAAYFEKNHGTRESLEALLQRAVAHCPKAEVLWLMGAKSKWLAGDVPAARSILALAFQANPNSEEIWLAAVKLESENDEYERARRLLAKARSSAPTARVFMKSVKLEWVQDNIRAAQDLCEEALRHYEDFPKLWMMKGQIEEQKEMMEKAREAYNQGLKKCPHSTPLWLLLSRLEEKIGQLTRARAILEKSRLKNPKNPGLWLESVRLEYRAGLKNIANTLMAKALQECPNSGILWSEAIFLEARPQRRTKSVDALKKCEHDPHVLLAVAKLFWSQRKITKAREWFHRTVKIDSDLGDAWAFFYKFELQHGTEEQQEEVRKRCESAEPRHGELWCAVSKDIANWQKKIGDILRLVAGRIKNTF
B7: SRp40 (protein, UniProt Q13243 1-272)
chain: MSGCRVFIGRLNPAAREKDVERFFKGYGRIRDIDLKRGFGFVEFEDPRDADDAVYELDGKELCSERVTIEHARARSRGGRGRGRYSDRFSSRRPRNDRRNAPPVRTENRLIVENLSSRVSWQDLKDFMRQAGEVTFADAHRPKLNEGVVEFASYGDLKNAIEKLSGKEINGRKIKLIEGSKRHSRSRSRSRSRTRSSSRSRSRSRSRSRKSYSRSRSRSRSRSRSKSRSVSRSPVPEKSQKRGSSSRSKSPASVDRQRSRSRSRSRSVDSGN
B8: SURP and G-patch domain-containing protein 1 (SUGP1) (protein, UniProt Q8IWZ8 1-645)
chain: MSLKMDNRDVAGKANRWFGVAPPKSGKMNMNILHQEELIAQKKREIEAKMEQKAKQNQVASPQPPHPGEITNAHNSSCISNKFANDGSFLQQFLKLQKAQTSTDAPTSAPSAPPSTPTPSAGKRSLLISRRTGLGLASLPGPVKSYSHAKQLPVAHRPSVFQSPDEDEEEDYEQWLEIKVSPPEGAETRKVIEKLARFVAEGGPELEKVAMEDYKDNPAFAFLHDKNSREFLYYRKKVAEIRKEAQKSQAASQKVSPPEDEEVKNLAEKLARFIADGGPEVETIALQNNRENQAFSFLYEPNSQGYKYYRQKLEEFRKAKASSTGSFTAPDPGLKRKSPPEALSGSLPPATTCPASSTPAPTIIPAPAAPGKPASAATVKRKRKSRWGPEEDKVELPPAELVQRDVDASPSPLSVQDLKGLGYEKGKPVGLVGVTELSDAQKKQLKEQQEMQQMYDMIMQHKRAMQDMQLLWEKAVQQHQHGYDSDEEVDSELGTWEHQLRRMEMDKTREWAEQLTKMGRGKHFIGDFLPPDELEKFMETFKALKEGREPDYSEYKEFKLTVENIGYQMLMKMGWKEGEGLGSEGQGIKNPVNKGTTTVDGAGFGIDRPAELSKEDDEYEAFRKRMMLAYRFRPNPLNNPRRPYY
B9: SPF31 (protein, UniProt O75937 1-253)
chain: MAASGESGTSGGGGSTEEAFMTFYSEVKQIEKRDSVLTSKNQIERLTRPGSSYFNLNPFEVLQIDPEVTDEEIKKRFRQLSILVHPDKNQDDADRAQKAFEAVDKAYKLLLDQEQKKRALDVIQAGKEYVEHTVKERKKQLKKEGKPTIVEEDDPELFKQAVYKQTMKLFAELEIKRKEREAKEMHERKRQREEEIEAQEKAKREREWQKNFEESRDGRVDSWRNFQANTKGKKEKKNRTFLRPPKVKMEQRE

Molecular target: T1, Splicing factor 1 (SF1) (human (endogenous in HeLa))
Assay: affinity purification with mass spectrometry; anti-SF1 on Protein G Sepharose; HeLa cell nuclear extract without or with 0.3 mg/ml RNase A; IP buffer 50 mM Tris-HCl pH 7.9, 100 mM NaCl, 0.05% NP-40, 0.5 mM DTT, 1 h 4°C; 1D PAGE, LC-MSMS; control mouse IgG

binding, binds:
B1, B2, B3, B4, B5, B6, B7, B8, B9
